Data from publication PMC8993864.

By UniProt entry, the sequences of proteins in these tests, tags left out.
UniProt Q96KN1: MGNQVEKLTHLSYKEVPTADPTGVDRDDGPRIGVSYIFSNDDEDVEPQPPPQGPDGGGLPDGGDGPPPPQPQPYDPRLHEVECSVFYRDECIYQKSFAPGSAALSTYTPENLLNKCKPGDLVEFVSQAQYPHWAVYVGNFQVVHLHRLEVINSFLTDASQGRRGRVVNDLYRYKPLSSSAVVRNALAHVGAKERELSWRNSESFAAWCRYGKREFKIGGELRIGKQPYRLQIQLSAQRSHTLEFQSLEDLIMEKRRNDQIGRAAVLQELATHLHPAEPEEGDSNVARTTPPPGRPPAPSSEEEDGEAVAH
UniProt P06748: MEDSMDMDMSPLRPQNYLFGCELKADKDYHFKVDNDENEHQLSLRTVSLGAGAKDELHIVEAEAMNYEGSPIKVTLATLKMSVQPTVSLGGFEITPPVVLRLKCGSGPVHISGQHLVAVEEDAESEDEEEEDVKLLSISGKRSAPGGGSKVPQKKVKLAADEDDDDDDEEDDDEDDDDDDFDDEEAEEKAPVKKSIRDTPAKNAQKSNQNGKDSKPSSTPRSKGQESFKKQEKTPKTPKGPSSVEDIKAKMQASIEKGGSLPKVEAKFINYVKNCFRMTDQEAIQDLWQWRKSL

Biological target: FLAG-FAM84B (pCMV-FLAG-FAM84B) (UniProt Q96KN1)
Assay: affinity purification with mass spectrometry; cells transfected with pCMV-FLAG-FAM84B (KYSE150 in the results, KYSE450 in the methods); 1 mg lysate protein with anti-FAM84B or anti-IgG and Protein A/G plus-agarose overnight at 4 °C; silver staining, differential bands analysed by MS

binding: binds
Substance: NPM1, endogenous (from UniProt P06748 1-294)

These are yes or no findings as the source states them, for the method shown. Binding seen in cells or lysates may run through a third protein. These calls come from enrichment with a bait or labelling near it, and not all partners need be listed.
